These are yes or no findings as the source states them, for the method shown. Some entries that bind do so weakly or less than the wild type. Sequences can lack the tags named with a protein.
Columns and labels:
[1] = target: Protein A (Sensor Chip Protein A, Cytiva) (UniProt P38507); assay: SPR, Biacore 8K, Sensor Chip Protein A (figure legend)
[2] = target: Protein A (Sensor Chip Protein A, Cytiva) (UniProt P38507); assay: SPR sensorgram (Biacore 8K), Sensor Chip Protein A
[3] = target: Protein A (Sensor Chip Protein A, Cytiva) (UniProt P38507); assay: SPR, Biacore 8K, Sensor Chip Protein A, single cycle kinetics

binding [1]	binding [2]	binding [3]	Binder
binds	binds	binds	PetML119 (canine p75NTR ECD-canine IgGB wt Fc protein fusion) (Fc fusion) KEACPTGLYTHSGECCKACNLGEGVAQPCGANQTVCEPCLDSVTFSDVVSATEPCKPCTECVGLQSMSAPCVEADDAVCRCAYGYYQDETTGRCEACRVCEAGSGLVFSCQDRQNTVCEECPDGTYSDEANHVDPCLPCTVCEDTERQLRECTRWADAECEEIPGGGGRENGRVPRPPDCPKCPAPEMLGGPSVFIFPPKPKDTLLIARTPEVTCVVVDLDPEDPEVQISWFVDGKQMQTAKTQPREEQFNGTYRVVSVLPIGHQDWLKGKQFTCKVNNKALPSPIERTISKARGQAHQPSVYVLPPSREELSKNTVSLTCLIKDFFPPDIDVEWQSNGQQEPESKYRTTPPQLDEDGSYFLYSKLSVDKSRWQRGDTFICAVMHEALHNHYTQKSLSHSPGK
binds	binds	binds	PetML122 (canine p75NTR ECD-canine Fc YTE protein fusion) (Fc fusion) KEACPTGLYTHSGECCKACNLGEGVAQPCGANQTVCEPCLDSVTFSDVVSATEPCKPCTECVGLQSMSAPCVEADDAVCRCAYGYYQDETTGRCEACRVCEAGSGLVFSCQDRQNTVCEECPDGTYSDEANHVDPCLPCTVCEDTERQLRECTRWADAECEEIPGGGGRENGRVPRPPDCPKCPAPEMLGGPSVFIFPPKPKDTLYITREPEVTCVVVDLDPEDPEVQISWFVDGKQMQTAKTQPREEQFNGTYRVVSVLPIGHQDWLKGKQFTCKVNNKALPSPIERTISKARGQAHQPSVYVLPPSREELSKNTVSLTCLIKDFFPPDIDVEWQSNGQQEPESKYRTTPPQLDEDGSYFLYSKLSVDKSRWQRGDTFICAVMHEALHNHYTQKSLSHSPGK

— patent publication US20260001933A1
